Results as given in publication PMC5112516.
Numbering of substitutions follows the chain as printed. These are yes or no findings as the source states them, for the method shown. One block for each binder: values may come before it.

Columns and labels:
Test in all cases: SEC; analytical Superdex 75 10/300 GL, purified protein loaded at 500 μM; calibrated with BSA, ovalbumin, ribonuclease A and aprotinin; check of the monomeric state; both purified
[1] = target: Mse7 (Metallosphaera sedula) (UniProt A4YEA2)
[2] = target: Mcu7 (Metallosphaera cuprina) (UniProt F4FYY6)
[3] = target: T1, Aho7b (Acidianus hospitalis) (UniProt F4B9I5)
T1 sequence: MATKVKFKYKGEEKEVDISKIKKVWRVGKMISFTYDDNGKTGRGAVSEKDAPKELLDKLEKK

[4] = target: T2, Sac7e (Sulfolobus acidocaldarius) (UniProt P13125)
T2 sequence: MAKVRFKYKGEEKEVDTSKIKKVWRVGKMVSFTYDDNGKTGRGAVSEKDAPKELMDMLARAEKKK

[5] = target: Sto7 (Sulfolobus tokodaii) (UniProt Q96X56)
[6] = target: T3, Sac7d (Sulfolobus acidocaldarius) (UniProt P13123)
T3 sequence: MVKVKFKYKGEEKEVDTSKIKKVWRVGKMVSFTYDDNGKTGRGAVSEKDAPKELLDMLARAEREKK

[7] = target: Sis7a (Sulfolobus islandicus) (UniProt D2PHL8)
[8] = target: T4, Ssh7a (Sulfolobus shibatae) (UniProt P61990)
T4 sequence: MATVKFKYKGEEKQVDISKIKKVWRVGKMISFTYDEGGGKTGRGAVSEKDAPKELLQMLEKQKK

[9] = target: Sis7b (Sulfolobus islandicus) (UniProt F0NJT3)
[10] = target: T5, Ssh7b (Sulfolobus shibatae) (UniProt O59632)
T5 sequence: T4 sequence with A2V, Q14E, I17T

[11] = target: T6, Sso7d (Sulfolobus solfataricus) (UniProt P39476)
T6 sequence: T4 sequence with Q14E

binding [5]: no binding (tested: 500 μM)
B5: Sto7 (protein, UniProt Q96X56 1-64)
chain: MVTVKFKYKGEEKEVDISKIKKVWRVGKMISFTYDDNGKTGRGAVSEKDAPKELLQMLEKSGKKLN

binding [8]: no binding (tested: 500 μM)
B8: Ssh7a (protein, UniProt P61990 1-64)
chain: MATVKFKYKGEEKQVDISKIKKVWRVGKMISFTYDEGGGKTGRGAVSEKDAPKELLQMLEKQKKLN

binding [10]: no binding (tested: 500 μM)
B10: Ssh7b (protein, UniProt O59632 1-64)
chain: B8 chain with A2V, Q14E, I17T

binding [11]: no binding (tested: 500 μM)
B11: Sso7d (protein, UniProt P39476 1-64)
chain: B8 chain with Q14E

The remaining lines, values behind:

B1: Mse7 (protein, UniProt A4YEA2 1-62)
chain: MATKIKFKYKGQDLEVDISKVKKVWKVGKMVSFTYDDNGKTGRGAVSEKDAPKELLNMIGKKLN
binding [1]: no binding (tested: 500 μM)

B2: Mcu7 (protein, UniProt F4FYY6 1-62)
chain: B1 chain with N57S
binding [2]: no binding (tested: 500 μM)

B3: Aho7b (protein, UniProt F4B9I5 1-62)
chain: MATKVKFKYKGEEKEVDISKIKKVWRVGKMISFTYDDNGKTGRGAVSEKDAPKELLDKLEKKLN
binding [3]: no binding (tested: 500 μM)

B4: Sac7e (protein, UniProt P13125 1-65)
chain: MAKVRFKYKGEEKEVDTSKIKKVWRVGKMVSFTYDDNGKTGRGAVSEKDAPKELMDMLARAEKKKLN
binding [4]: no binding (tested: 500 μM)

B6: Sac7d (protein, UniProt P13123 1-66)
chain: MVKVKFKYKGEEKEVDTSKIKKVWRVGKMVSFTYDDNGKTGRGAVSEKDAPKELLDMLARAEREKKLN
binding [6]: no binding (tested: 500 μM)

B7: Sis7a (protein, UniProt D2PHL8 1-64)
chain: B8 chain with A2T
binding [7]: no binding (tested: 500 μM)

B9: Sis7b (protein, UniProt F0NJT3 1-64)
chain: B8 chain with A2T, I17T
binding [9]: no binding (tested: 500 μM)
